Data: paper PMC12250332

Molecular target: SlGeBP5 (tomato (Solanum lycopersicum L.))
Test: two-hybrid; SlGeBP1 in pGADT7 as prey, SlGeBP5 in pGBKT7 as bait; Y2H Gold yeast; growth on SD/-Leu -Trp -His -Ade with 500 ng/mL AbA

binding: binds
Substance: SlGeBP1 (from UniProt A0A3Q7EMN3)

No constants are given. Whether binding was seen depends on the method and setting. Binding calls can cover weak binding; strength is not graded here.
